Reference: patent US20190022241A1
Results are given in words; binding and its absence hold for the method and conditions named. Some entries that bind do so weakly or less than the wild type. Blank lines part the entries; values can stand above or below the binder they belong to.

Chains of the proteins cited; added tags and fusions are not shown. Lines headed by an entry give the natural chain unless they say otherwise; changes in a name come on top.
UniProt Q53EL9: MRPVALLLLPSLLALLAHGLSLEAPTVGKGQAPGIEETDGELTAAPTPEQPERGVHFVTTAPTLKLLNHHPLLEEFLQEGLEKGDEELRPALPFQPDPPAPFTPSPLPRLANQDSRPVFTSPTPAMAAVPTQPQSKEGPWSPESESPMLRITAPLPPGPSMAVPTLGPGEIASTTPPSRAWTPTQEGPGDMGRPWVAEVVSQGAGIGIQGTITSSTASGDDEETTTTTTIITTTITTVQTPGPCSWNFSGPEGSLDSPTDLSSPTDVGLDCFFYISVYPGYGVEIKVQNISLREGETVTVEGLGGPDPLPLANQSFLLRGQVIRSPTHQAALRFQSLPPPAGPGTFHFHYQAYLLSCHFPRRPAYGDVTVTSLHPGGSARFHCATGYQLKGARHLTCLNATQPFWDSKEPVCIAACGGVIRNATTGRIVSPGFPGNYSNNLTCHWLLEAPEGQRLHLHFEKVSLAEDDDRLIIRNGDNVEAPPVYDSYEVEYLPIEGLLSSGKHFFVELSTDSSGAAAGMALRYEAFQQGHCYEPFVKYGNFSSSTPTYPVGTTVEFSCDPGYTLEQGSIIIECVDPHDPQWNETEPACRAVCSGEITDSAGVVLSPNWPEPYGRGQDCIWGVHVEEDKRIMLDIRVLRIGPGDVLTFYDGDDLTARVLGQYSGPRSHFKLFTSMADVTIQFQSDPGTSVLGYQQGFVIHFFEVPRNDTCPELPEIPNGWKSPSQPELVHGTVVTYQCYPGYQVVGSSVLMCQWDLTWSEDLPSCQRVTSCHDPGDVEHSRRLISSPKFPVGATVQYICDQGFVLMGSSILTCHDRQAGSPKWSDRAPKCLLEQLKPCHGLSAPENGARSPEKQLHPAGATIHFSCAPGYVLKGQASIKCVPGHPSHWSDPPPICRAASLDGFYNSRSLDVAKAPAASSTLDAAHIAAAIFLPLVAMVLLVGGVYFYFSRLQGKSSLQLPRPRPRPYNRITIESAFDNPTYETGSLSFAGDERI
UniProt Q7TSK2: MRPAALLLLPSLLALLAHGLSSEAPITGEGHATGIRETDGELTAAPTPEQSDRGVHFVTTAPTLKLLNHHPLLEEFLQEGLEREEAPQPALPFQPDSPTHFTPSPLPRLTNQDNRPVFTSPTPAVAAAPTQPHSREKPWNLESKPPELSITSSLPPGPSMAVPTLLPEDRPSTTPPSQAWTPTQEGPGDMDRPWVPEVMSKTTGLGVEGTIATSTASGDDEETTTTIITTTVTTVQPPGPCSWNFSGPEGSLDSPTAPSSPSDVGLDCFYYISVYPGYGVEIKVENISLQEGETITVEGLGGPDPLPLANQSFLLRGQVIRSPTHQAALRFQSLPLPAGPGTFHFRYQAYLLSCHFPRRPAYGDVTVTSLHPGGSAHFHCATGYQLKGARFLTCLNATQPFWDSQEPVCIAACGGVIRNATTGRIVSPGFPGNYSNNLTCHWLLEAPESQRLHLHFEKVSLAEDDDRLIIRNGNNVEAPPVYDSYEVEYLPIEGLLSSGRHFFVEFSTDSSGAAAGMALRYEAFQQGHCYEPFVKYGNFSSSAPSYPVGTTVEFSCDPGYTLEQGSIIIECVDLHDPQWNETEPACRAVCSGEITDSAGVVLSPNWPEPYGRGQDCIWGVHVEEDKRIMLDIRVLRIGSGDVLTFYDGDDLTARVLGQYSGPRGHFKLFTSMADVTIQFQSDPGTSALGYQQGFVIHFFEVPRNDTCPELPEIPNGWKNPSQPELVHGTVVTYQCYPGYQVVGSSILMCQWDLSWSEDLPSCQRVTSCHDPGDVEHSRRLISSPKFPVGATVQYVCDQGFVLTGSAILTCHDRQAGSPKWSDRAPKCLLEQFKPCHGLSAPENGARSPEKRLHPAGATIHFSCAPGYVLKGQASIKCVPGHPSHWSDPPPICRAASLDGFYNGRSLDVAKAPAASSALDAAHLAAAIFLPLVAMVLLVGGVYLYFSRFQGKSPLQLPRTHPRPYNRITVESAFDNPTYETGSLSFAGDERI

What was measured:
[1] = biological target: SEZ6 N3 (aa 170-335) on yeast (human) (UniProt Q53EL9); assay: yeast display, flow cytometry
[2] = biological target: human SEZ6 on NTX tumor cells (human) (UniProt Q53EL9); assay: flow cytometry, LU100 NTX tumor cells
[3] = biological target: mouse SEZ6 on Neuro2a cells (mouse) (UniProt Q7TSK2); assay: flow cytometry, Neuro2a cells, 5 ug/mL antibody
[4] = biological target: rat SEZ6 on RIN-m5F cells (rat); assay: flow cytometry, RIN-m5F cells, 5 ug/mL antibody
[5] = biological target: human SEZ6 on HEK-293T cells (human) (UniProt Q53EL9); assay: flow cytometry; format for human SEZ6 not detailed
[6] = biological target: human SEZ6 on NTX tumor cells (human) (UniProt Q53EL9); assay: flow cytometry on LU64 NTX tumor cells co-stained for CD324; gray filled = isotype control of the bulk population
[7] = biological target: extracellular domain of cynomolgus SEZ6 on yeast (cynomolgus); assay: flow cytometry, yeast displaying cynomolgus SEZ6 ECD, 5 ug/mL antibody
[8] = biological target: SEZ6 Sushi Domain 4 (amino acids 750-813) on yeast (human) (UniProt Q53EL9); assay: yeast display, flow cytometry

binding [1]: binds
binding [2]: binds
binding [3]: binds
binding [4]: binds
binding [5]: binds
binding [6]: binds
B1: SC17.42 (antibody, V domains shown)
VH: DVKLVESGGGLVRPGGSLKLSCAASGFTFSRYTMSWVRQTPEKRLEWAATINSGGSNTYYPDSVKGRFTISRDNAKNTLFLQMSSLKSEDTAMYYCTNGNHWGQGTTLTVSS
VL: ENVLTQSPAIMSASPGEKVTMTCSASSSVNYMYWYQQKSSTSPKLWIYDTSKLTSGVPGRFSGSGSGNSYSLTISNMEAEDVATYYCFQGSGYPLTFGSGTKLEIK

binding [5]: binds
binding [7]: binds
B2: SC17.45 (antibody, V domains shown)
VH: QVQLQQPGSVLVRPGDSVKLSCKASGYTFTSYWMHWVKQSPGQGLEWIGEIHPHSGSTNYNEKFKGKATLTVDTSSSTAYVDLSSLTSEDSAVYYCVGGHYDYWGQGTTLTVSS
VL: B1 VL

binding [8]: binds
B3: SC17.166 (antibody, V domains shown)
VH: EVQLQQSGPELMKPGASVKMSCKASGYIFTDYNMHWVKQNQGKSLEWIGEVNPNTGGIGYNQKFKGKATLTVDKSSSTAYMDLRSLTSEDSAVYYCARDGNYCFDYWGQGTTLTVSS
VL: QIVLTQSPAIMSASPGEKVTMTCSASSSISYMHWYQQKSGTSPKRWIYDTSKLASGVPARFSGSGSGTSYSLTISNMEAEDAATYYCQQWSSTPPTFGGGTKLEIK
